Measured values: publication PMC9676683
No constants are given. Whether binding was seen depends on the method and setting. Binding seen in cells or lysates may run through a third protein. Some entries that bind do so weakly or less than the wild type. Tags and fused reporters may be left off the sequences shown.

Protein sequences, listed by entry. Tags and fused reporters are not part of them.
UniProt P70338: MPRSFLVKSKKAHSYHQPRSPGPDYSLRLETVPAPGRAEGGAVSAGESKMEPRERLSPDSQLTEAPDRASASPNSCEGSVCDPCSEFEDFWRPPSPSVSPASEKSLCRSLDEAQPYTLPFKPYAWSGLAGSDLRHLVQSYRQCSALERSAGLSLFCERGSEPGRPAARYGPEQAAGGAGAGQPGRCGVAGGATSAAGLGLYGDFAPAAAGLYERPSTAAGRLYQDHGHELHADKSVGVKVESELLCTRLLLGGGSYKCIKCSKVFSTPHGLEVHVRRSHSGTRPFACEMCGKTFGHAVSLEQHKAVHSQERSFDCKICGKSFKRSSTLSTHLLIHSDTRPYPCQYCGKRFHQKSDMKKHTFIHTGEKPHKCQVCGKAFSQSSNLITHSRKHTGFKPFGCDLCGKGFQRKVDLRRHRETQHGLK

Target: GST-Gfi1 (mouse) (UniProt P70338)
Test: pull-down; GST-Gfi1 held on glutathione sepharose beads; in vitro translated myc-Atoh1 extract incubated 2 h at 4°C; both treated with micrococcal nuclease; lysis and wash buffers with 5 mM β-mercaptoethanol and 50 μM ZnSO4; Western blot with anti-myc antibody; only the target purified

B1: Myc-tagged Atoh1 (protein, UniProt P48985 1-351)
chain: MSRLLHAEEWAEVKELGDHHRHPQPHHVPPLTPQPPATLQARDLPVYPAELSLLDSTDPRAWLTPTLQGLCTARAAQYLLHSPELGASEAAAPRDEADSQGELVRRSGCGGLSKSPGPVKVREQLCKLKGGVVVDELGCSRQRAPSSKQVNGVQKQRRLAANARERRRMHGLNHAFDQLRNVIPSFNNDKKLSKYETLQMAQIYINALSELLQTPNVGEQPPPPTASCKNDHHHLRTASSYEGGAGASAVAGAQPAPGGGPRPTPPGPCRTRFSGPASSGGYSVQLDALHFPAFEDRALTAMMAQKDLSPSLPGGILQPVQEDNSKTSPRSHRSDGEFSPHSHYSDSDEAS
binding: binds
